The list shows a part of the results.
Legend:
Test in all cases: log2 fold change, soluble protein after heating vs DMSO (PISA); higher = thermal stabilisation; K562 lysate, 10 uM; active = over 0.2 and 3.5 SD of the protein, either way, in both replicates (recomputed)
vemurafenib = compound: CCCS(=O)(=O)Nc1ccc(F)c(C(=O)c2c[nH]c3ncc(-c4ccc(Cl)cc4)cc23)c1F [vemurafenib]
Outline: (§1)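 Thermal stability, expressed as log-two fold change relative to solvent controls, is given from duplicates. Crude K562 extract in PBS pH 7.4 with 1 mM MgCl2, at 1 mg/mL protein, was treated with 10 μM compound for 30 min and heated in aliquots for 3 min across 48°C-58°C. After pooling, adjustment to 0.5% NP-40 at 4°C and centrifugation at 21,000xg for 90 min, supernatant protein was measured by TMTpro 16plex LC-MS/MS with channel sums equalised.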

Chains of the proteins cited; added tags and fusions are not shown. Lines headed by an entry give the natural chain unless they say otherwise; changes in a name come on top.
UniProt P30419: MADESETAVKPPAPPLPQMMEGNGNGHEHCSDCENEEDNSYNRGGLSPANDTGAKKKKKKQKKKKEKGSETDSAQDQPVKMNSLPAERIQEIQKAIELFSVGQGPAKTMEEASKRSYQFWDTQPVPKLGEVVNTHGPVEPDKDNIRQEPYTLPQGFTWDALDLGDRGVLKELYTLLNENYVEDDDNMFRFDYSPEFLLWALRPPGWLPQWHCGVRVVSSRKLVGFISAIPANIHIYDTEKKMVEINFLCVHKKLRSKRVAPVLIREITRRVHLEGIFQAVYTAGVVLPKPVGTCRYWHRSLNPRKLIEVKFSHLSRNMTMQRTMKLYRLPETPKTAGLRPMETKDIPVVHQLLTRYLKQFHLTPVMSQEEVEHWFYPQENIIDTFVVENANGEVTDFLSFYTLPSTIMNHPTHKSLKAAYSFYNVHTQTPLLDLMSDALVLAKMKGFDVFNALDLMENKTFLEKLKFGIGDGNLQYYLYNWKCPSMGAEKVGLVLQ
UniProt Q9Y639: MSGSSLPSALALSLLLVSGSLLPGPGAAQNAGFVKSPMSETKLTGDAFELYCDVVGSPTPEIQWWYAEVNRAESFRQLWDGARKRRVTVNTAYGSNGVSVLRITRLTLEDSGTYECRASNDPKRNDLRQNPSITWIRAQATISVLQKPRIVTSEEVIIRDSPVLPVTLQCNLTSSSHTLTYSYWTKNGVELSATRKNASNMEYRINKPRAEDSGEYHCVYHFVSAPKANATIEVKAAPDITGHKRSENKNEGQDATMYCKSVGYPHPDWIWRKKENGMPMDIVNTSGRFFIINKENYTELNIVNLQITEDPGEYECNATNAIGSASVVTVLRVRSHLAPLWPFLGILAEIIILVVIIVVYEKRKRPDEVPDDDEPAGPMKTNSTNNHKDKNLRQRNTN
UniProt P46087: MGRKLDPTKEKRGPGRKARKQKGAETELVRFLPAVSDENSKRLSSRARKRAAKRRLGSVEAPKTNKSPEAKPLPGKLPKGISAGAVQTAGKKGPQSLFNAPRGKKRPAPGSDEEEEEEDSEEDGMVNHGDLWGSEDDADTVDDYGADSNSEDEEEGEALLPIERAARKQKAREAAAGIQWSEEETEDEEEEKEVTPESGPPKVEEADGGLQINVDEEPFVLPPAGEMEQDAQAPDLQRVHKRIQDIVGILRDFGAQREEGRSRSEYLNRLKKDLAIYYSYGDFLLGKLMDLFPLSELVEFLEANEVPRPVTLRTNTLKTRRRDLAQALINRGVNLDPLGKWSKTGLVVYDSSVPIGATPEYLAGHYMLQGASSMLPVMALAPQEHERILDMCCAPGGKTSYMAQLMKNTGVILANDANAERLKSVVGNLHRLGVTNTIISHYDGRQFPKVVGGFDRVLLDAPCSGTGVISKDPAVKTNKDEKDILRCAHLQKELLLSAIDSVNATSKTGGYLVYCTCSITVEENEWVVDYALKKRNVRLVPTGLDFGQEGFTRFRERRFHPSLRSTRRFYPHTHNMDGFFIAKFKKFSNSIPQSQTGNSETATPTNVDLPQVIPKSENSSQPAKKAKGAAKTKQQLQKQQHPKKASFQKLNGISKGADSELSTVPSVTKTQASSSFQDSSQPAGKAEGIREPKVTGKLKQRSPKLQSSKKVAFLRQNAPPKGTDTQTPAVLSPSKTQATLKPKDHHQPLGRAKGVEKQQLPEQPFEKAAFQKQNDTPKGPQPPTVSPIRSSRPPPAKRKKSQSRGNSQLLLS
UniProt Q9BVI4: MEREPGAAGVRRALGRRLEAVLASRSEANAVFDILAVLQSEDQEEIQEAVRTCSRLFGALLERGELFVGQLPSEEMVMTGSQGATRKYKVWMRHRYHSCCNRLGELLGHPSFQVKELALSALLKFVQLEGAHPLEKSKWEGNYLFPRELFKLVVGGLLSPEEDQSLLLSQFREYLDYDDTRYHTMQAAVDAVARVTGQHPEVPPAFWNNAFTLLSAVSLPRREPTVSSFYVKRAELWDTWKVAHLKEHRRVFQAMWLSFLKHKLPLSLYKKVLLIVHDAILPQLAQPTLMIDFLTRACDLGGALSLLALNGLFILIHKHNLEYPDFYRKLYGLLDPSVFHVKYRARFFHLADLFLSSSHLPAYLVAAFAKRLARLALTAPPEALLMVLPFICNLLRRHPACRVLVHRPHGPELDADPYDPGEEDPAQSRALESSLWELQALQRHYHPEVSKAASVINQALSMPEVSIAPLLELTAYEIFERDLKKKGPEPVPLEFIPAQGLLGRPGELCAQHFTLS
UniProt P49790, whole entry, looked up: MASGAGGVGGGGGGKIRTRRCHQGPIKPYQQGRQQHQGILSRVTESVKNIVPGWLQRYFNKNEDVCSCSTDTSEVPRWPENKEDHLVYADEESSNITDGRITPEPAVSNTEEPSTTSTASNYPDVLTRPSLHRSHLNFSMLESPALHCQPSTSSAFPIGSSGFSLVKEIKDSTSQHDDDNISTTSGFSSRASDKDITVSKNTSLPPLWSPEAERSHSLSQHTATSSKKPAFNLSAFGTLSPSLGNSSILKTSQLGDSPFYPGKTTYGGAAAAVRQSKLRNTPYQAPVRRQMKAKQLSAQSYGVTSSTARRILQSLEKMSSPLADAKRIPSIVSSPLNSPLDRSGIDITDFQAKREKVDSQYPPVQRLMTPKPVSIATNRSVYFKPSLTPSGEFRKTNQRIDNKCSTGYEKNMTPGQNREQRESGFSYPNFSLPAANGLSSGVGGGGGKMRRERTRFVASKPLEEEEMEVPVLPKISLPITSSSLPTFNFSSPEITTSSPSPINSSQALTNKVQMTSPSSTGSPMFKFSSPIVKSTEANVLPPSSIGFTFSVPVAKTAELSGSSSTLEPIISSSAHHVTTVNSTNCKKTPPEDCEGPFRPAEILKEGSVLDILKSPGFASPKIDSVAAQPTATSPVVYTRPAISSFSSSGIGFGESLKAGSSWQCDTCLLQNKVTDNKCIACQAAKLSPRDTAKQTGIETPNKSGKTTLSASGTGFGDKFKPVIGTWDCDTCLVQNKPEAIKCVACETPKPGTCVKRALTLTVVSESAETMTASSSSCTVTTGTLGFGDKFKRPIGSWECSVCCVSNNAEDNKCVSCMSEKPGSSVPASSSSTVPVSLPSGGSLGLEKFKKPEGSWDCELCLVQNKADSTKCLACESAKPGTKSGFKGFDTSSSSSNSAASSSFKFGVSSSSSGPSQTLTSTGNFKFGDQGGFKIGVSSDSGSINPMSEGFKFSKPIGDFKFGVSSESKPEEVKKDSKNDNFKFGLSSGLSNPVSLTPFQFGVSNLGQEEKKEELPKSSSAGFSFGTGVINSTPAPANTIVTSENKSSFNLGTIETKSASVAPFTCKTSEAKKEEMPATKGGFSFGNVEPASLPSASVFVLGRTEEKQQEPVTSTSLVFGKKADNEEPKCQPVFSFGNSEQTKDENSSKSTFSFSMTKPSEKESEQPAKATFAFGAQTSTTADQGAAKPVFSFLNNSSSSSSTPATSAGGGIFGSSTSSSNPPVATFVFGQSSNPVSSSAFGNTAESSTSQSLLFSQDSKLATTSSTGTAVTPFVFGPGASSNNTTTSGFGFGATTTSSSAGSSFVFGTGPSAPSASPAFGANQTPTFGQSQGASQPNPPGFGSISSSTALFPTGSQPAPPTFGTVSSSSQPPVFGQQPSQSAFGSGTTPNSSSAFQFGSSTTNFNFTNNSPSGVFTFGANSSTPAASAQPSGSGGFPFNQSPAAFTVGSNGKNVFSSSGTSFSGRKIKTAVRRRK
UniProt O43809, whole entry, looked up: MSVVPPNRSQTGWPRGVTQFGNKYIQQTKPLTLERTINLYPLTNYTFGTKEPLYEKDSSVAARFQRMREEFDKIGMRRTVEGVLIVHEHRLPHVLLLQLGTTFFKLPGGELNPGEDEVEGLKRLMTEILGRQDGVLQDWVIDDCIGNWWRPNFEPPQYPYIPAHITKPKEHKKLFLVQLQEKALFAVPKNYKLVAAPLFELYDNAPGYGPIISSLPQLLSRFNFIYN
UniProt Q9Y266: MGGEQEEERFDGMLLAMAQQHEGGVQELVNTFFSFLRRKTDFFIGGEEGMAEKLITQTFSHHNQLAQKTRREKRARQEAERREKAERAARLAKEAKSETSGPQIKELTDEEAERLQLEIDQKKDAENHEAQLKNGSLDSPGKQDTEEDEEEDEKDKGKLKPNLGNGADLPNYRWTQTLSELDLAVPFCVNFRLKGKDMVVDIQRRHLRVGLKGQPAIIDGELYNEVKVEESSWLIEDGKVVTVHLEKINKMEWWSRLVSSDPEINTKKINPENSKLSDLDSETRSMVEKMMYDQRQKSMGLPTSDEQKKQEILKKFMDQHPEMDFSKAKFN
UniProt O00567: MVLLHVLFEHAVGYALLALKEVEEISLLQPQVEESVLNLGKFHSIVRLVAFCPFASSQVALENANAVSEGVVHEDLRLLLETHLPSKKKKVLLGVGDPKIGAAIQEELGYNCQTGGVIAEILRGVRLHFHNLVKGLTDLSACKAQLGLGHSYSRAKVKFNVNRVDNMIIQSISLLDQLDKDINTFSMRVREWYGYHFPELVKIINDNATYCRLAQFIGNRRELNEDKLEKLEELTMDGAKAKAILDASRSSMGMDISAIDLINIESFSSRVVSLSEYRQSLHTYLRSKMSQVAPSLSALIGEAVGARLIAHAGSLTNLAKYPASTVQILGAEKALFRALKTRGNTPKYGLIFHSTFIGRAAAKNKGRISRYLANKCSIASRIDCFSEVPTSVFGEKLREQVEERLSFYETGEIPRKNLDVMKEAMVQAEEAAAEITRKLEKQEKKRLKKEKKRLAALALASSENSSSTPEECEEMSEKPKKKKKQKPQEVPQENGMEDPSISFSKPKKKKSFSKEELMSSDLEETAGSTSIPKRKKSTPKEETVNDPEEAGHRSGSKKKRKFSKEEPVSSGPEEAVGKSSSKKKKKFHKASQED
UniProt A8MXV4: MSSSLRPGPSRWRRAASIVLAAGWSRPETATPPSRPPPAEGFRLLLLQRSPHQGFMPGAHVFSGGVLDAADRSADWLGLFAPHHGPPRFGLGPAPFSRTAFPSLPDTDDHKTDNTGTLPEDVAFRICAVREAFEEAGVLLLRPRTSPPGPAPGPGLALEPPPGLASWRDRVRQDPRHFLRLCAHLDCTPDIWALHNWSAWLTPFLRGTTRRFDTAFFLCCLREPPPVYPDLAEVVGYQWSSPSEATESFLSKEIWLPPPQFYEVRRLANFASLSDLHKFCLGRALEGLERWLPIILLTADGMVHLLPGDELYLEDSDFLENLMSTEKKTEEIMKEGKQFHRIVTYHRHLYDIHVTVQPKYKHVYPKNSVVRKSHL
UniProt Q9BSC4: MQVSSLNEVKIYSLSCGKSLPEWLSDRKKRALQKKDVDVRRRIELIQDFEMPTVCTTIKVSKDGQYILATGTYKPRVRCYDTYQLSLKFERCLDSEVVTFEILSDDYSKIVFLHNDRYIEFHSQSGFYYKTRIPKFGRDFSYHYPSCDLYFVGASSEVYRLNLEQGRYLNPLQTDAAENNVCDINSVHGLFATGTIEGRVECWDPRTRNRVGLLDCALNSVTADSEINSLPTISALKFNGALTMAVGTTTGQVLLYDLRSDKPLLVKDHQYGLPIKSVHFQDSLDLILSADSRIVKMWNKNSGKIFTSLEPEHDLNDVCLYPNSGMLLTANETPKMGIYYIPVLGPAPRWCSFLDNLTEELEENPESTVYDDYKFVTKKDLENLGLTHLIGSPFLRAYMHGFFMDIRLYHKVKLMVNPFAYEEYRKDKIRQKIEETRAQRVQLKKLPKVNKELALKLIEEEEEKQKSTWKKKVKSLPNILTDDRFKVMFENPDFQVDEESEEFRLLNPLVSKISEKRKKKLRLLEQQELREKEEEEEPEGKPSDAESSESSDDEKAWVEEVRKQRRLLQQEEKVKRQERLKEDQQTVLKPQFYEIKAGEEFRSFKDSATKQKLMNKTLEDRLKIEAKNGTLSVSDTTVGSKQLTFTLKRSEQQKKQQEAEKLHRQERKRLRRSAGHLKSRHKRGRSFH
UniProt Q9Y5Y2: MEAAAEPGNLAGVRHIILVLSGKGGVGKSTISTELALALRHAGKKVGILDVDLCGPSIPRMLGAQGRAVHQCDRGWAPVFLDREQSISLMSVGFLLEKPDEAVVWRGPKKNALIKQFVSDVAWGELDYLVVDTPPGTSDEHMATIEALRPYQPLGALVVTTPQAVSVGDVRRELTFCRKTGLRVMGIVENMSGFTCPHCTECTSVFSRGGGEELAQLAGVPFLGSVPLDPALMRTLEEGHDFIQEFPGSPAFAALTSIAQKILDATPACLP
UniProt Q9BW91: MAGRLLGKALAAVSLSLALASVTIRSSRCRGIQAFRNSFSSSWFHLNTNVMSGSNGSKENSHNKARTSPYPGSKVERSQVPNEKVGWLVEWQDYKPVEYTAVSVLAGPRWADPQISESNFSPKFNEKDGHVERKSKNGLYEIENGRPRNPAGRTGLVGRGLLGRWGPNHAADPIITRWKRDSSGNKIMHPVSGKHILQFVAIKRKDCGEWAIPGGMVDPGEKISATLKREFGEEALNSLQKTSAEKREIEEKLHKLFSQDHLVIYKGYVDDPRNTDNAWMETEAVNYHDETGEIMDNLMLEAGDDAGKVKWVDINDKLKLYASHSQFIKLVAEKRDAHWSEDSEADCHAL

[1] = compound: CCCS(=O)(=O)Nc1ccc(F)c(C(=O)c2c[nH]c3ncc(Cl)cc23)c1F
Outline: as §1

barasertib = compound: CCN(CCCOc1ccc2c(Nc3cc(CC(=O)Nc4cccc(F)c4)[nH]n3)ncnc2c1)CCOP(=O)(O)O [barasertib]
Outline: as §1

[2] = compound: CC[C@@H]1C(=O)N(C)c2cnc(Nc3ccc(C(=O)NC4CCN(C)CC4)cc3OC)nc2N1C1CCCC1
Outline: as §1

volasertib = compound: CC[C@@H]1C(=O)N(C)c2cnc(Nc3ccc(C(=O)N[C@H]4CC[C@H](N5CCN(CC6CC6)CC5)CC4)cc3OC)nc2N1C(C)C [volasertib]
Outline: as §1

[3] = compound: CCn1c(C(=O)N(C2CC2)C2CC2)cc2c3c(ncn3C)c(Nc3cc(C)n(C)n3)nc21
Outline: as §1

[4] = compound: CCn1cc(-c2ccnc3[nH]c(-c4cccc(CN(C)C)c4)cc23)c(-c2ccc(NC(=O)N(C)C)cc2)n1
Outline: as §1

[5] = compound: CN1CCC(CNc2ccc3ncc(-c4cccc(OC(F)(F)F)c4)n3n2)CC1
Outline: as §1

saracatinib = compound: CN1CCN(CCOc2cc(OC3CCOCC3)c3c(Nc4c(Cl)ccc5c4OCO5)ncnc3c2)CC1 [saracatinib]
Outline: as §1

sotrastaurin = compound: CN1CCN(c2nc(C3=C(c4c[nH]c5ccccc45)C(=O)NC3=O)c3ccccc3n2)CC1 [sotrastaurin]
Outline: as §1

alvocidib = compound: CN1CC[C@H](c2c(O)cc(O)c3c(=O)cc(-c4ccccc4Cl)oc23)[C@H](O)C1 [alvocidib]
Outline: as §1

Tubastatin A = compound: CN1CCc2c(c3ccccc3n2Cc2ccc(C(=O)NO)cc2)C1 [Tubastatin A]
Outline: as §1

[6] = compound: CNC(=O)C1=CC=CC=C1NC2=NC(=NC=C2Cl)NC3=C(C=C(C=C3)N4CCOCC4)OC
Outline: as §1

defactinib = compound: CNC(=O)c1ccc(Nc2ncc(C(F)(F)F)c(NCc3nccnc3N(C)S(C)(=O)=O)n2)cc1 [defactinib]
Outline: as §1

[7] = compound: CNc1nc(-c2ccc3c(N)n[nH]c3c2)cc(N2C[C@@H](C(=O)NC3CCCCC3)CC[C@H]2C)n1
Outline: as §1

encorafenib = compound: COC(=O)N[C@@H](C)CNc1nccc(-c2cn(C(C)C)nc2-c2cc(Cl)cc(NS(C)(=O)=O)c2F)n1 [encorafenib]
Outline: as §1

[8] = compound: COC(=O)[C@H](CCSC)NC(=O)C1=C(C=C(C=C1)NC[C@H](CS)N)C2=CC=CC=C2
Outline: as §1

alisertib = compound: COc1cc(Nc2ncc3c(n2)-c2ccc(Cl)cc2C(c2c(F)cccc2OC)=NC3)ccc1C(=O)O [alisertib]
Outline: as §1

[9] = compound: COc1cc2nc(-c3cc(F)ccc3O)nc(N[C@@H]3CNC[C@H]3C(C)(C)O)c2cc1OC
Outline: as §1

gefitinib = compound: COc1cc2ncnc(Nc3ccc(F)c(Cl)c3)c2cc1OCCCN1CCOCC1 [gefitinib]
Outline: as §1

Measured: log2 fold change

NMT1 (UniProt P30419)
inactive: vemurafenib 0.024 | [1] 0.016 | barasertib -0.025 | [2] 0.014 | volasertib -0.002 | [3] 0.01 | [4] -0.04 | [5] 0.001 | saracatinib 0.003 | sotrastaurin 0.025 | alvocidib 0.021 | Tubastatin A 0.001 | [6] 0.001 | defactinib 0.031 | [7] 0.011 | encorafenib -0.001 | [8] 0.087 | alisertib -0.005 | [9] 0.007 | gefitinib -0.006

NOC3L (UniProt Q8WTT2)
inactive: vemurafenib 0.033 | [1] -0.004 | barasertib 0.071 | [2] 0.001 | volasertib 0.021 | [3] -0.036 | [4] -0.118 | [5] 0.065 | saracatinib 0.032 | sotrastaurin -0.008 | alvocidib -0.095 | Tubastatin A -0.05 | [6] -0.025 | defactinib -0.009 | [7] 0.016 | encorafenib 0.081 | [8] -0.064 | alisertib 0.003 | [9] -0.014 | gefitinib 0.23

NUP133 (UniProt Q8WUM0)
inactive: vemurafenib 0.009 | [1] 0.014 | barasertib 0.01 | [2] -0.028 | volasertib -0.081 | [3] 0.05 | [4] -0.047 | [5] 0.04 | saracatinib 0.014 | sotrastaurin 0.038 | alvocidib -0.08 | Tubastatin A -0.111 | [6] -0.007 | defactinib 0.035 | [7] -0.028 | encorafenib 0.039 | [8] 0.002 | alisertib -0.009 | [9] 0.011 | gefitinib -0.003

NPTN (UniProt Q9Y639)
inactive: vemurafenib -0.028 | [1] -0.042 | barasertib 0.007 | [2] 0.032 | volasertib -0.038 | [3] -0.017 | [4] -0.019 | [5] 0.052 | saracatinib 0.02 | sotrastaurin -0.016 | alvocidib -0.023 | Tubastatin A -0.01 | [6] 0 | defactinib -0.185 | [7] 0.03 | encorafenib -0.023 | [8] 0.015 | alisertib 0.011 | [9] 0.042 | gefitinib 0.024

NOP2 isoform 4 (UniProt P46087)
inactive: vemurafenib 0.046 | [1] 0.013 | barasertib 0.007 | [2] 0.001 | volasertib -0.005 | [3] 0.016 | [4] -0.036 | [5] 0.024 | saracatinib 0.01 | sotrastaurin -0.009 | alvocidib 0.021 | Tubastatin A 0.001 | [6] -0.001 | defactinib -0.01 | [7] 0.069 | encorafenib 0.074 | [8] -0.02 | alisertib 0.004 | [9] -0.017 | gefitinib -0.021

NOC4L (UniProt Q9BVI4)
inactive: vemurafenib -0.036 | [1] 0.046 | barasertib -0.057 | [2] -0.059 | volasertib -0.017 | [3] 0.021 | [4] 0.035 | [5] -0.096 | saracatinib -0.001 | sotrastaurin 0.032 | alvocidib 0.026 | Tubastatin A -0.1 | [6] -0.006 | defactinib -0.039 | [7] 0.038 | encorafenib 0.118 | [8] 0.083 | alisertib -0.019 | [9] -0.035 | gefitinib -0.047

NUP153 (UniProt P49790)
inactive: vemurafenib 0.011 | [1] 0.007 | barasertib 0.004 | [2] 0.066 | volasertib -0.006 | [3] -0.005 | [4] 0.016 | [5] 0.009 | saracatinib 0.021 | sotrastaurin -0.015 | alvocidib -0.029 | Tubastatin A 0.027 | [6] 0.018 | defactinib 0 | [7] 0.021 | encorafenib 0.039 | [8] -0.084 | alisertib -0.03 | [9] 0.033 | gefitinib -0.004

NOP9 (UniProt Q86U38)
inactive: vemurafenib -0.047 | [1] -0.034 | barasertib 0.003 | [2] -0.083 | volasertib -0.018 | [3] 0.093 | [4] 0.151 | [5] -0.087 | saracatinib 0.057 | sotrastaurin 0.014 | alvocidib 0.064 | Tubastatin A 0.005 | [6] -0.08 | defactinib 0.028 | [7] -0.019 | encorafenib 0.033 | [8] 0.008 | alisertib 0.007 | [9] -0.028 | gefitinib 0.057

NRF1 isoform 4 (UniProt Q16656)
inactive: vemurafenib 0.016 | [1] 0.055 | barasertib 0.052 | [2] -0.007 | volasertib 0 | [3] -0.005 | [4] 0.004 | [5] -0.085 | saracatinib 0.039 | sotrastaurin 0.012 | alvocidib -0.044 | Tubastatin A 0.003 | [6] 0.03 | defactinib -0.017 | [7] -0.003 | encorafenib -0.013 | [8] -0.041 | alisertib 0.037 | [9] -0.017 | gefitinib -0.031

Reprinted at random: two entries already listed.
NMT1 (UniProt P30419)
inactive: vemurafenib 0.024 | [1] 0.016 | barasertib -0.025 | [2] 0.014 | volasertib -0.002 | [3] 0.01 | [4] -0.04 | [5] 0.001 | saracatinib 0.003 | sotrastaurin 0.025 | alvocidib 0.021 | Tubastatin A 0.001 | [6] 0.001 | defactinib 0.031 | [7] 0.011 | encorafenib -0.001 | [8] 0.087 | alisertib -0.005 | [9] 0.007 | gefitinib -0.006

NOP2 isoform 4 (UniProt P46087)
inactive: vemurafenib 0.046 | [1] 0.013 | barasertib 0.007 | [2] 0.001 | volasertib -0.005 | [3] 0.016 | [4] -0.036 | [5] 0.024 | saracatinib 0.01 | sotrastaurin -0.009 | alvocidib 0.021 | Tubastatin A 0.001 | [6] -0.001 | defactinib -0.01 | [7] 0.069 | encorafenib 0.074 | [8] -0.02 | alisertib 0.004 | [9] -0.017 | gefitinib -0.021

Going on with the list:

NUDT21 (UniProt O43809)
inactive: vemurafenib -0.013 | [1] -0.048 | barasertib 0.037 | [2] 0.015 | volasertib 0.01 | [3] -0.001 | [4] 0.113 | [5] 0.028 | saracatinib -0.012 | sotrastaurin -0.029 | alvocidib -0.027 | Tubastatin A 0.044 | [6] -0.055 | defactinib -0.022 | [7] 0.003 | encorafenib 0.043 | [8] -0.007 | alisertib 0 | [9] 0.002 | gefitinib -0.03

NUDC (UniProt Q9Y266)
inactive: vemurafenib -0.008 | [1] -0.014 | barasertib -0.025 | [2] 0.015 | volasertib 0.01 | [3] -0.005 | [4] 0.093 | [5] -0.029 | saracatinib 0.015 | sotrastaurin 0.011 | alvocidib 0.015 | Tubastatin A 0.05 | [6] -0.027 | defactinib -0.027 | [7] -0.014 | encorafenib -0.004 | [8] 0.003 | alisertib 0.025 | [9] 0 | gefitinib 0.013

NOP56 (UniProt O00567)
inactive: vemurafenib -0.068 | [1] 0.032 | barasertib 0.003 | [2] -0.018 | volasertib -0.019 | [3] 0.011 | [4] 0.007 | [5] -0.032 | saracatinib 0.001 | sotrastaurin 0.011 | alvocidib 0.014 | Tubastatin A 0.012 | [6] -0.011 | defactinib 0.029 | [7] 0.086 | encorafenib 0 | [8] 0.06 | alisertib 0.007 | [9] -0.009 | gefitinib 0.008

NUDT19 (UniProt A8MXV4)
inactive: vemurafenib -0.003 | [1] 0.001 | barasertib -0.029 | [2] 0.012 | volasertib 0.001 | [3] 0.037 | [4] 0.003 | [5] 0.01 | saracatinib -0.017 | sotrastaurin -0.012 | alvocidib 0.003 | Tubastatin A -0.007 | [6] -0.004 | defactinib 0.018 | [7] -0.008 | encorafenib 0.002 | [8] -0.006 | alisertib -0.012 | [9] -0.075 | gefitinib -0.003

NOL10 (UniProt Q9BSC4)
inactive: vemurafenib -0.026 | [1] -0.016 | barasertib -0.039 | [2] -0.398 | volasertib -0.043 | [3] 0.084 | [4] 0.012 | [5] -0.042 | saracatinib 0.094 | sotrastaurin 0.112 | alvocidib -0.009 | Tubastatin A -0.213 | [6] 0.097 | defactinib 0.164 | [7] 0.051 | encorafenib -0.192 | [8] 0.021 | alisertib 0.124 | [9] 0.017 | gefitinib 0.049

NUBP2 (UniProt Q9Y5Y2)
inactive: vemurafenib -0.017 | [1] 0.009 | barasertib -0.079 | [2] -0.033 | volasertib -0.072 | [3] 0.04 | [4] 0.188 | [5] -0.105 | saracatinib 0.015 | sotrastaurin 0.06 | alvocidib 0.125 | Tubastatin A -0.038 | [6] 0 | defactinib -0.008 | [7] -0.01 | encorafenib 0.032 | [8] 0.131 | alisertib -0.013 | [9] 0.004 | gefitinib -0.017

NUDT9 (UniProt Q9BW91)
inactive: vemurafenib 0.018 | [1] 0.025 | barasertib -0.049 | [2] -0.001 | volasertib 0.006 | [3] -0.003 | [4] -0.036 | [5] 0.021 | saracatinib -0.011 | sotrastaurin 0.02 | alvocidib 0.019 | Tubastatin A -0.032 | [6] 0.037 | defactinib 0.03 | [7] -0.023 | encorafenib 0.018 | [8] -0.09 | alisertib -0.045 | [9] 0.005 | gefitinib 0.011

Source: the supplement of paper PMC10849652
